Values from PubChem BioAssay AID652259 (Drosophila RNAi Screening Center, 2013).

- Purpose: 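Identify new Wingless signalling regulators in fly cells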 (primary screen)
- Cell system: Drosophila clone 8 imaginal disc epithelial cells
- Knock-down reagent: long dsRNA against Drosophila genes
- Conditions: pathway stimulated by co-transfected Wingless expression plasmid
- Detection: 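Dual luciferase reads per well after Wingless plasmid stimulation: reporter firefly light and Renilla control light; activity is firefly divided by Renilla, a ratio not deposited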
- Reading the numbers: firefly reporter light: higher = more Wg reporter light, before normalisation; Renilla control light: higher = more transfected or surviving cells
- Hit rule: 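Strong candidates differ from their plate mean by at least two out of four per-plate statistical tests; weak candidates meet just one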
- Calls: active = candidate regulator (raises or lowers reporter); inactive = not a candidate
In all, the deposit lists about 22,000 reagents; below is an unselected part of those with a known target gene and a result. Of all reagents, 233 (1.1%) were called active. 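Light values are raw, unnormalised plate reads; the ratio scores behind the reporter calls were not deposited.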 Unmarked entries are inactive. A plus sign joins genes that one reagent is predicted to hit. Not given: the amount of reagent, the time to read-out, the dose of the treatment.

Silencing of CG9550 [DRSC03262] gave: firefly reporter light, replicate 1 = 2550; firefly reporter light, replicate 2 = 8338; Renilla control light, replicate 1 = 1207; Renilla control light, replicate 2 = 1200.
Against CG2906 [DRSC06841], the values are firefly reporter light, replicate 1 = 1623; firefly reporter light, replicate 2 = 6528; Renilla control light, replicate 1 = 672; Renilla control light, replicate 2 = 2065.
Against CG13310 [DRSC09981], the values are reporter change call, replicate 1 = Wg reporter activity lowered (active); firefly reporter light, replicate 1 = 602; firefly reporter light, replicate 2 = 5872; Renilla control light, replicate 1 = 976; Renilla control light, replicate 2 = 3015.
Depletion of CG15696 [DRSC15118] resulted in: firefly reporter light, replicate 1 = 11913; Renilla control light, replicate 1 = 2033.
CG7791 [DRSC04891] showed firefly reporter light, replicate 1 = 10352; Renilla control light, replicate 1 = 2329.
Depletion of Ctr1B + Poxm [DRSC16245] gave: firefly reporter light, replicate 1 = 12321; Renilla control light, replicate 1 = 3383.
With knock-down of Vajk1 [DRSC01882], the screen gave firefly reporter light, replicate 1 = 6224; firefly reporter light, replicate 2 = 8100; Renilla control light, replicate 1 = 1728; Renilla control light, replicate 2 = 4647.
Ekar (Eye-enriched kainate receptor) [DRSC17161] scored firefly reporter light, replicate 1 = 16660; Renilla control light, replicate 1 = 11752.
Against CG1835 [DRSC20560] the deposit lists firefly reporter light, replicate 1 = 13620; Renilla control light, replicate 1 = 10026.
With knock-down of CG13539 [DRSC04181] the results were firefly reporter light, replicate 1 = 2037; firefly reporter light, replicate 2 = 6986; Renilla control light, replicate 1 = 228; Renilla control light, replicate 2 = 2148.
erm (earmuff) [DRSC00700] showed firefly reporter light, replicate 1 = 11111; Renilla control light, replicate 1 = 5095.
For Klp3A (Kinesin-like protein at 3A) [DRSC18676] the deposit lists firefly reporter light, replicate 1 = 4040; firefly reporter light, replicate 2 = 8630; Renilla control light, replicate 1 = 1665; Renilla control light, replicate 2 = 3680.
Klp3A (Kinesin-like protein at 3A) [DRSC21625] gave firefly reporter light, replicate 1 = 3.61e5; firefly reporter light, replicate 2 = 4.76e5; Renilla control light, replicate 1 = 1.85e5; Renilla control light, replicate 2 = 1.51e5.
Knock-down of CG32100 [DRSC09725] gave: firefly reporter light, replicate 1 = 4186; Renilla control light, replicate 1 = 1761.
CG32100 [DRSC10331] showed firefly reporter light, replicate 1 = 5125; Renilla control light, replicate 1 = 1772.
Silencing of CG4465 [DRSC15584] gave: firefly reporter light, replicate 1 = 20050; Renilla control light, replicate 1 = 4793.
Against Alg7 [DRSC02833], the entry reads firefly reporter light, replicate 1 = 7456; Renilla control light, replicate 1 = 2887.
Alg7 [DRSC02834] scored firefly reporter light, replicate 1 = 2179; firefly reporter light, replicate 2 = 8027; Renilla control light, replicate 1 = 791; Renilla control light, replicate 2 = 2438.
With knock-down of Cpr47Ed (Cuticular protein 47Ed) [DRSC07331], the record shows firefly reporter light, replicate 1 = 5403; Renilla control light, replicate 1 = 2226.
After knock-down of alpha-Est1 (alpha-Esterase-1) [DRSC12612], the record shows firefly reporter light, replicate 1 = 4640; Renilla control light, replicate 1 = 891.
After knock-down of CG42747 [DRSC10209], the screen gave firefly reporter light, replicate 1 = 982; firefly reporter light, replicate 2 = 6172; Renilla control light, replicate 1 = 1104; Renilla control light, replicate 2 = 3178.
CG42747 [DRSC10210] showed firefly reporter light, replicate 1 = 1773; firefly reporter light, replicate 2 = 5729; Renilla control light, replicate 1 = 1339; Renilla control light, replicate 2 = 1769.
MtnD (Metallothionein D) [DRSC22733] scored firefly reporter light, replicate 1 = 5.41e5; firefly reporter light, replicate 2 = 5.98e5; Renilla control light, replicate 1 = 2.41e5; Renilla control light, replicate 2 = 2.35e5.
For CG8349 [DRSC03083] the deposit lists firefly reporter light, replicate 1 = 3325; firefly reporter light, replicate 2 = 7916; Renilla control light, replicate 1 = 992; Renilla control light, replicate 2 = 3195.
After knock-down of Agpat4 (1-Acylglycerol-3-phosphate O-acyltransferase 4) [DRSC10446] the results were firefly reporter light, replicate 1 = 5754; Renilla control light, replicate 1 = 2869.

Entries listed above marked active:
CG13310 [DRSC09981] — reporter change call, replicate 1 = Wg reporter activity lowered (active); firefly reporter light, replicate 1 = 602; firefly reporter light, replicate 2 = 5872; Renilla control light, replicate 1 = 976; Renilla control light, replicate 2 = 3015
